Experimental data taken from paper PMC8733628.
These are yes or no findings as the source states them, for the method shown. Tags and fused reporters may be left off the sequences shown.

Target: T1, Alb3-Cub: mature Alb3 fused to the C-terminal half of ubiquitin (split-ubiquitin bait) (Arabidopsis thaliana) (UniProt Q8LBP4)
T1 sequence: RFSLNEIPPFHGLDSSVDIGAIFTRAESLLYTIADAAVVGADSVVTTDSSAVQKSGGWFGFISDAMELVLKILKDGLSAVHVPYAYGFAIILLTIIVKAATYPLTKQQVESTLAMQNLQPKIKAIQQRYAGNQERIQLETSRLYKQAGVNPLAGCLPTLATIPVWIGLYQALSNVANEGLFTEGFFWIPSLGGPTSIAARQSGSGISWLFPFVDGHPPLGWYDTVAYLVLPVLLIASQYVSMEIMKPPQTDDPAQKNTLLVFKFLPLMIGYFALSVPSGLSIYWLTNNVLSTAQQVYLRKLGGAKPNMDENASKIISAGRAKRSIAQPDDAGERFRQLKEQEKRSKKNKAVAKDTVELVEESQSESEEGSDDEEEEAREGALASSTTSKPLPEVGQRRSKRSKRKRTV
Experiment: two-hybrid; yeast split-ubiquitin assay; Alb3 constructs fused to Cub, uL4 constructs fused to NubG; growth on selective medium (-LTH)

binding: no binding
Substance: NubG-uL4 of Thermosynechococcus elongatus, full length (aa 1-210)
